The list shows only some results of the screen, not a fair sample: it is rich in T/C values a quarter to a half above the control, in often repeated tests (any T/C) and in doses without a T/C. Other doses and runs of a compound stand elsewhere. T/C: endpoint of the treated group in % of that of the vehicle group. Some entries give survivors of the animals treated and no T/C: the source holds a T/C of zero for them, seemingly a mark for toxic or unscored doses. Some doses without a T/C left all or most animals alive at the check, yet need not have been tolerated: the source hardly ever lists a survival T/C far under the control, and the zero likely stands for such cases as well. Survivors were counted at the toxicity check, usually on the fifth day, unless a day is given; later deaths do not show. Schedule codes are those of the source, taken here to give the interval after Q, in days (D) or hours (H), and the number of doses after X. Some entries hold several experiments; the results are listed from low to high. Where survival is the endpoint, the PubChem record calls one and a half times the control and up active, and a quarter to a half above the control has no call in these data; cut-offs in other NCI protocols can differ.
System: L1210 leukemia ip in BDF1 mice, survival T/C
Assay: NCI In Vivo Anticancer Drug Screen. Data for tumor model L1210 Leukemia (intraperitoneal) in B6D2F1 (BDF1) mice
Conditions: T/C endpoint: mean survival time, higher T/C = longer survival
[1] = dose: 100.0 mg/kg/injection, schedule: Q01DX009 (ip), vehicle: saline with Tween-80
[2] = dose: 200.0 mg/kg/injection, schedule: Q01DX009 (ip), vehicle: saline with Tween-80
[3] = dose: 400.0 mg/kg/injection, schedule: Q04DX002 (ip), vehicle: Klucel (hydroxypropylcellulose) (HPC)
[4] = dose: 400.0 mg/kg/injection, schedule: Q01DX009 (ip), vehicle: Klucel (hydroxypropylcellulose) (HPC)
[5] = dose: 400.0 mg/kg/injection, schedule: Q04DX003 (ip), vehicle: Klucel (hydroxypropylcellulose) (HPC)
[6] = dose: 150.0 mg/kg/injection, schedule: Q01DX001 (ip), vehicle: saline
[7] = dose: 300.0 mg/kg/injection, schedule: Q01DX001 (ip), vehicle: saline
[8] = dose: 100.0 mg/kg/injection, schedule: Q04DX003 (ip), vehicle: Klucel (hydroxypropylcellulose) (HPC)
[9] = dose: 200.0 mg/kg/injection, schedule: Q04DX003 (ip), vehicle: Klucel (hydroxypropylcellulose) (HPC)
[10] = dose: 200.0 mg/kg/injection, schedule: Q04DX003 (ip), vehicle: saline
[11] = dose: 400.0 mg/kg/injection, schedule: Q04DX003 (ip), vehicle: saline
[12] = dose: 100.0 mg/kg/injection, schedule: Q04DX003 (ip), vehicle: saline
[13] = dose: 400.0 mg/kg/injection, schedule: Q04DX003 (ip), vehicle: saline with Tween-80

O=C(NC(=S)Nc1ccccn1)c1ccccc1
survivor count (dose: 100.0 mg/kg/injection, schedule: Q04DX002 (ip), vehicle: other): 3 of 3 | survivor count (dose: 400.0 mg/kg/injection, schedule: Q04DX002 (ip), vehicle: other): 2 of 3

CCCCCC(C)NCC(C)(C)O (stereo unspecified)
survivor count (dose: 150.0 mg/kg/injection, schedule: Q01DX001 (ip), vehicle: acid diluted with saline): 3 of 6 | survivor count (dose: 300.0 mg/kg/injection, schedule: Q01DX001 (ip), vehicle: acid diluted with saline): 0 of 6

CSC(=O)N=Nc1c(O)n(C)c(=O)n(C)c1=O
survivor count [1]: 3 of 3 | survivor count [2]: 0 of 3

CC(C)(C)Sc1cccnc1
survivor count (dose: 400.0 mg/kg/injection, schedule: Q01DX009 (ip), vehicle: saline with Tween-80): 6 of 6

O=C(NSN1CCOCC1)c1ccccc1
survivor count [3]: 1 of 3

C=C1C(=O)OC2C3OC(C)(CCC(O)C3COC(C)=O)CC(OC(=O)/C(=C/C)COC(C)=O)C12 (stereo unspecified)
survivor count (dose: 3.13 mg/kg/injection, schedule: Q01DX009 (ip), vehicle: Klucel (hydroxypropylcellulose) (HPC)): 6 of 6

CCCCC(CC)CCC(=O)CC(C)C (stereo unspecified)
survivor count [4]: 4 of 6

N/C(Cc1ccc(Cl)cc1)=N/O
survivor count [5]: 4 of 6

CN=NNc1ccccc1
T/C (dose: 28.0 mg/kg/injection, schedule: Q01DX009 (ip), vehicle: saline): 134 % of control | T/C (dose: 42.0 mg/kg/injection, schedule: Q01DX009 (ip), vehicle: saline): 147 % of control | T/C (dose: 75.0 mg/kg/injection, schedule: Q04DX003 (ip), vehicle: saline with Tween-80): 125 % of control | T/C (dose: 100.0 mg/kg/injection, schedule: Q04DX003 (ip), vehicle: saline with Tween-80): 145 % of control | T/C (dose: 150.0 mg/kg/injection, schedule: Q04DX003 (ip), vehicle: saline with Tween-80): 141 % of control | T/C (dose: 225.0 mg/kg/injection, schedule: Q04DX003 (ip), vehicle: saline with Tween-80): 129 % of control

CN(CCN1CCCCC1)C(=O)C(c1ccccc1)C1CCCCC1 (stereo unspecified)
survivor count [6]: 2 of 6 | survivor count [7]: 0 of 6

CCc1c2cc3c(cc2cc2c4cc5c(cc4cc[n+]12)OCO5)OCO3 (tested in a mixture with another compound)
survivor count (dose: 12.5 mg/kg/injection, schedule: Q01DX009 (ip), vehicle: Klucel (hydroxypropylcellulose) (HPC)): 2 of 6 | survivor count (dose: 25.0 mg/kg/injection, schedule: Q04DX003 (ip), vehicle: Klucel (hydroxypropylcellulose) (HPC)): 6 of 6 | survivor count (dose: 50.0 mg/kg/injection, schedule: Q04DX003 (ip), vehicle: Klucel (hydroxypropylcellulose) (HPC)): 2 of 6 | survivor count [8]: 1 of 6 | survivor count [9]: 0 of 6 | survivor count [5]: 0 of 6

N=C(N)CSS(=O)(=O)O
survivor count (dose: 50.0 mg/kg/injection, schedule: Q01DX009 (ip), vehicle: Klucel (hydroxypropylcellulose) (HPC)): 1 of 3 | survivor count (dose: 100.0 mg/kg/injection, schedule: Q04DX002 (ip), vehicle: Klucel (hydroxypropylcellulose) (HPC)): 0 of 3 | survivor count (dose: 200.0 mg/kg/injection, schedule: Q04DX002 (ip), vehicle: Klucel (hydroxypropylcellulose) (HPC)): 0 of 3 | survivor count [3]: 0 of 3

CCCCCCCCCCC(CCCCCCC)(CCCCCCCC)CCCCCCCCC (stereo unspecified)
T/C (dose: 100.0 mg/kg/injection, schedule: Q01DX001 (ip), vehicle: saline with Tween-80): 126 % of control | T/C (dose: 200.0 mg/kg/injection, schedule: Q01DX001 (ip), vehicle: saline with Tween-80): 129 % of control

CCCCCCOc1ccc(C(=N)N(CCCC)CCCC)c2ccccc12
survivor count (dose: 40.0 mg/kg/injection, schedule: Q01DX001 (ip), vehicle: saline): 2 of 4 | survivor count (dose: 50.0 mg/kg/injection, schedule: Q01DX001 (ip), vehicle: saline): 1 of 5 | survivor count (dose: 80.0 mg/kg/injection, schedule: Q01DX001 (ip), vehicle: saline): 0 of 4 | survivor count (dose: 100.0 mg/kg/injection, schedule: Q01DX001 (ip), vehicle: saline): 1 of 4 | survivor count (dose: 200.0 mg/kg/injection, schedule: Q01DX001 (ip), vehicle: saline): 0 of 4 | survivor count (dose: 400.0 mg/kg/injection, schedule: Q01DX001 (ip), vehicle: saline): 0 of 4

NCc1ccc[n+]([O-])c1
survivor count (dose: 100.0 mg/kg/injection, schedule: Q04DX002 (ip), vehicle: saline with Tween-80): 3 of 3

O=C(CC(=O)c1ccccc1)c1ccccc1.[Tl]
survivor count [8]: 0 of 6 | survivor count [9]: 0 of 6 | survivor count [5]: 0 of 6

Oc1cc(O)c(CN(CCCl)CCCl)cc1CN(CCCl)CCCl
T/C (dose: 12.5 mg/kg/injection, schedule: Q01DX009 (ip), vehicle: saline): 125 % of control | survivor count (dose: 37.5 mg/kg/injection, schedule: Q01DX009 (ip), vehicle: saline): 6 of 6 | survivor count (dose: 75.0 mg/kg/injection, schedule: Q01DX009 (ip), vehicle: saline): 5 of 6 | survivor count [1]: 5 of 6 | survivor count (dose: 150.0 mg/kg/injection, schedule: Q01DX009 (ip), vehicle: saline): 2 of 6 | survivor count [10]: 3 of 6 | survivor count [11]: 3 of 6

O=[N+]([O-])c1cccc(NCn2c(=S)[nH]c3ccccc32)c1
survivor count [4]: 0 of 6

O=C1CC2CCCCC2O1 (stereo unspecified)
survivor count [2]: 2 of 3 | survivor count (dose: 300.0 mg/kg/injection, schedule: Q01DX001 (ip), vehicle: other): 0 of 6 and 1 of 6

[N-]=[N+]=NCC(=O)NCc1cnccn1
survivor count (dose: 100.0 mg/kg/injection, schedule: Q01DX009 (ip), vehicle: saline): 0 of 6 | survivor count (dose: 200.0 mg/kg/injection, schedule: Q01DX009 (ip), vehicle: saline): 3 of 6 | survivor count (dose: 400.0 mg/kg/injection, schedule: Q01DX009 (ip), vehicle: saline): 0 of 6

CC(C)(C)NCCC(=O)c1ccccc1
survivor count [12]: 1 of 6 | survivor count [10]: 0 of 6 | survivor count [11]: 0 of 6

COc1ccc(CC(C)=O)cc1
survivor count (dose: 50.0 mg/kg/injection, schedule: Q04DX003 (ip), vehicle: saline): 6 of 6 | survivor count [12]: 6 of 6 | survivor count [10]: 6 of 6

C=CCc1ccc(OCCOCCN(CC=C(C)C)CC=C(C)C)c(OC)c1
survivor count [8]: 3 of 6 | survivor count [9]: 0 of 6 | survivor count [5]: 0 of 6

CC(=O)OC1CC2C(=O)CC1(C)C2(C)C (stereo unspecified)
survivor count [6]: 1 of 6 | survivor count [7]: 0 of 6

O=C(c1ccccc1)N1CC2CC3OC3c3cccc1c32 (stereo unspecified)
survivor count [13]: 5 of 6

COc1cccc(C[Si](C)C)c1
survivor count [13]: 6 of 6

c1ccc(C[Se]Cc2ccccc2)cc1
survivor count (dose: 200.0 mg/kg/injection, schedule: Q04DX003 (ip), vehicle: other): 3 of 6 | survivor count (dose: 400.0 mg/kg/injection, schedule: Q04DX003 (ip), vehicle: other): 0 of 6

COc1cc(C[C@H]2c3cc(OC)c(OC)cc3CCN2C)c(Oc2cc3c(cc2OC)-c2c(OC)c(OC)cc4c2[C@H](C3)N(C)CC4)cc1OC
survivor count (dose: 200.0 mg/kg/injection, schedule: Q01DX009 (ip), vehicle: clinical formulation): 6 of 10 | survivor count (dose: 320.0 mg/kg/injection, schedule: Q01DX015 (ip), vehicle: carboxymethylcellulose (CMC)): 1 of 4 | survivor count (dose: 400.0 mg/kg/injection, schedule: Q01DX009 (ip), vehicle: clinical formulation): 0 of 10 | survivor count (dose: 432.0 mg/kg/injection, schedule: Q08DX002 (ip), vehicle: other): 5 of 10 | survivor count (dose: 576.0 mg/kg/injection, schedule: Q04DX003 (ip), vehicle: other): 1 of 10 | survivor count (dose: 864.0 mg/kg/injection, schedule: Q08DX002 (ip), vehicle: other): 0 of 10

OC(C[n+]1ccsc1)c1ccccc1 (stereo unspecified)
survivor count [7]: 0 of 6

Source: PubChem BioAssay AID248 (DTP/NCI, 2004)
